Percent effect of library compounds

The values are deposited in ChEMBL (CHEMBL3988442, “University of Dundee, Small-Polar-MMV Screening Library” (2021)).

A: 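Growth of Mycobacterium tuberculosis over 3 days (7H9 medium with glucose and tyloxapol); the read-out is not stated. Tested at 500 µM. Direction is inferred from retests: higher values go with more growth inhibition. About 18,000 compounds were tested under these conditions; 7.9% (about 1,400) showed 50% or more at least once.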
B: 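Phenotypic screen: M. tuberculosis growth, cholesterol and DPPC medium, 4 days; the read-out is not stated. Concentration: 500 µM. Direction is inferred from retests: higher values go with more growth inhibition. About 18,000 compounds were tested under these conditions; 5% (about 900) showed 50% or more at least once.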

Values are the deposited “Percent Effect”, in %. The controls that fix the scale are not given in the record; negative values are as filed. The compounds are a random part of those screened.

- O=C1NCC(=O)N2CCCC12 (stereo not drawn) : A: 4.18%; B: 7.124%
- CCOc1c(CNCCO)cc(Cl)cc1OC : A: 8.235%; B: 8.091%
- CN(CC1CC1)C(=O)c1nn(C)c(=O)c2ccccc12 : A: 13.37%; B: 3.798%
- NC(=O)COC(=O)COc1cccc2ccccc12 : A: 14.87%; B: 20.44%
- CC(=O)N1CCC(CN)CC1 : A: 0.9758%; B: -1.579%
- CC(C(=O)N(C)Cc1ccncc1)n1cncn1 (stereo not drawn) : A: 5.969%; B: -4.049%
- CC(C)(C)CNCCC#N : A: -4.59%; B: 3.089%
- CC(NS(C)(=O)=O)C(=O)NCC1(Cn2ccnc2)CC1 (stereo not drawn) : A: 5.448%; B: -15.79%
- CCOC(=O)C(O)c1cc(Br)c2c(c1)OCO2 (stereo not drawn) : A: 60.14%; B: 44.29%
- CN(CCC(O)c1ccccc1)C(=O)c1cc(Cl)c[nH]1 (stereo not drawn) : A: 89.89%; B: 90.3%
- CCOc1cc(NCc2ccccc2CO)ncn1 : A: -1.912%; B: -1.743%
- C=C(Br)CNC(=O)C1CC(=O)N(CC(C)C)C1 (stereo not drawn) : A: 33.69%; B: 14.59%
- COc1cc(F)ccc1NC(=O)c1ccncc1 : A: 35.54%; B: 22.49%
- O=C(CCc1cc(Cl)no1)N1CCCC2(CCOC2)C1 (stereo not drawn) : A: 47.54%; B: 43.77%
- Cc1nccc(NC(=O)C2CN(C)CCO2)c1Cl (stereo not drawn) : A: -7.12%; B: -10.95%
- O=C(Nc1ccc(-n2nccn2)cc1)N1CCC(O)C1 (stereo not drawn) : A: 28.3%; B: 7.188%
- CNS(=O)(=O)c1ccc(NCCn2ccnc2)c(F)c1 : A: -8.272%; B: 14.01%
- FC(F)OC1CCCNC1 (stereo not drawn) : A: -4.366%; B: -11.83%
- COC(=O)CCc1nnc(N)s1 : A: 5.912%; B: -6.943%
- Cc1noc(C)c1CN1CCOCC1(C)CO (stereo not drawn) : A: 18.24%; B: 11.28%
- NC(=O)NC(=O)CCSc1ncnc2ccsc12 : A: -4.496%; B: -2.304%
- Cc1cc(NC(=O)C[S+]([O-])c2cccs2)no1 (stereo not drawn) : A: 25.17%; B: 10.64%
- Cc1nccn1CCCN1CCN(C)C(CCO)C1 (stereo not drawn) : A: 13.86%; B: 14.21%
- CN(C)CCNC(=O)CCC(=O)Nc1ccc(Cl)cc1 : A: 25.41%; B: 15.65%
- COCCSc1ccc(C(C)NS(=O)(=O)N(C)C)cc1 (stereo not drawn) : A: 26.13%; B: 43.58%
- O=C(NCc1ccco1)Nc1nc2c(s1)COCC2 : A: 52.12%; B: 51.21%
- CC(C)(C)OC(=O)N1CCCC1=O : A: -4.193%; B: -12.43%
- Cc1ncsc1CCN : A: 10.65%; B: 8.107%

Once more, the final 3:

SMILES,A,B
O=C(NCc1ccco1)Nc1nc2c(s1)COCC2,52.12,51.21
CC(C)(C)OC(=O)N1CCCC1=O,-4.193,-12.43
Cc1ncsc1CCN,10.65,8.107